# Experimental data from PubChem BioAssay AID445 (National Center for Advancing Translational Sciences (NCATS), 2006).
# The other results are listed elsewhere or left out. Further columns of the screen follow, without active or inactive calls. Most of these compounds were active or inconclusive in the main read-out, so they are no random draw. Words in brackets tell the shape of the fitted curve; partial curves, single points and poor fits give uncertain potencies.
# Assay: IkB Signaling
# Details: ABC-DLBCL IkBa-CBG/CBR dual luciferase ratio (green luciferase fused to IkBa over red control in OCI-Ly3 lymphoma cells), 4 h
# How it was run: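 In this assay, an IκBα–CBG68 fusion accumulates when IKK-driven degradation is blocked; native CBR normalizes for cell number. OCI-Ly3 cells were treated 4 h with compound and doxycycline, then green and red light read after Chroma-Glo addition.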
# [1] = measured here: control luc red channel unless noted
# [2] = measured here: IkB-luc green channel
# [3] = measured here: control luc red channel
structure (smiles),measurement,setting,value
c1ccc(CCn2nnnc2C(c2cccnc2)N2CCN(c3nc4ccccc4s3)CC2)cc1 (stereo not drawn),AC50,[1],"25.1 µM [falling, partial curve]"
CC(=O)N1CCCc2ccc(NC(=O)c3ccc(OC(C)C)cc3)cc21,AC50,[1],"12.6 µM [falling, partial curve]"
CCC(=O)N1CCc2cc(Br)cc(S(=O)(=O)N3CCCC(C(=O)NCc4ccc(C)cc4)C3)c21 (stereo not drawn),AC50,[1],"15.8 µM [falling, partial curve, poor fit]"
Cc1ccc(-n2c3nc(=O)n(C)c(=O)c-3cc3ccccc32)c(C)c1,AC50,[1],"0.01 µM [falling, full curve, poor fit]"
COc1cccc2cc(-c3nc4sc5c(c4c(=O)[nH]3)CCC(C(C)(C)C)C5)c(=O)oc12 (stereo not drawn),AC50,[1],"0.00316 µM [rising, full curve, poor fit]"
Cc1nc2ccccn2c1/C(O)=C1\C(=O)C(=O)N(CCCN(C)C)C1c1ccc(Cl)cc1 (stereo not drawn),AC50,[1],"7.94 µM [falling, full curve, poor fit]"
Cc1ccccc1S(=O)(=O)Cc1ccc(C(=O)N2CCN(c3cccc(C)c3C)CC2)o1,AC50,[1],"5.01 µM [falling, partial curve]"
Cc1ccc2c(=O)cc(C(=O)Nc3c(C)cccc3C)oc2c1,AC50,[1],"25.1 µM [falling, single point]"
CCCCN(Cc1cc2cc(C)ccc2[nH]c1=O)C(=O)c1cccc(Cl)c1,AC50,[1],"7.94 µM [falling, partial curve]"
COc1ccc(NC(=O)c2cc(-c3ccc(O)cc3)on2)cc1OC,AC50,[1],"20 µM [rising, partial curve] [measured here: IkB-luc green channel]"
CCOc1ccc(OCC)c(NC(=O)CSc2nc3c(c(=O)n(C)c(=O)n3C)n2C)c1,AC50,[1],"7.94 µM [rising, single point] [measured here: IkB-luc green channel]"
COC(=O)c1ccccc1NC(=O)C1CCCN(S(=O)(=O)c2ccccc2)C1 (stereo not drawn),AC50,[1],"15.8 µM [falling, partial curve]"
CSc1nn(Cc2ccc(F)cc2)c(N(C(C)=O)C(C)=O)c1S(=O)(=O)c1ccccc1,AC50,[1],"20 µM [falling, single point]"
Cc1ccc(C(=O)CSc2nc(C)cc(C)c2C(=O)Nc2cccc(C)c2)cc1,AC50,[1],"15.8 µM [falling, partial curve]"
CNC(=O)c1ccc(-c2sc3nc(N4CCOCC4)c4c(c3c2N)CCCC4)o1,AC50,[1],"10 µM [falling, partial curve]"
CC1CCCN(Cc2nc3c(c(=O)n(C)c(=O)n3C)n2CC(=O)c2ccccc2)C1 (stereo not drawn),AC50,[1],"0.501 µM [falling, full curve]"
CCN(C(=O)CN1C(=O)c2ccccc2Sc2ccc(C(=O)OC)cc21)c1cccc(C)c1,AC50,[1],"20 µM [falling, single point]"
Nc1ncnc2c1ncn2[C@@H]1O[C@@H](C(=O)NC2CC2)[C@H](O)[C@@H]1O,AC50,[2],"0.00398 µM [rising, full curve, poor fit]"
same,AC50,[3],"0.00501 µM [rising, full curve, poor fit]"
COC(=O)C1CCN(C(=O)COC(=O)c2n[nH]c3ccccc23)CC1,AC50,[1],"2.51 µM [falling, full curve]"
Cc1ccc(Nc2c(-c3ccccn3)nc3ccc(Br)cn23)cc1,AC50,[1],"12.6 µM [falling, partial curve, poor fit]"
CCC(=O)N1CCc2cc(Br)cc(S(=O)(=O)N3CCCC(C(=O)Nc4ccc(C)c(F)c4)C3)c21 (stereo not drawn),AC50,[1],"5.01 µM [falling, single point]"
Cc1ccc(C(=O)N(Cc2ccc(N(C)C)cc2)CC2CCCO2)cc1 (stereo not drawn),AC50,[1],"25.1 µM [falling, single point]"
CC(CCc1ccccc1)NC(=O)CSc1n[nH]c(-c2ccccc2)n1 (stereo not drawn),AC50,[1],"39.8 µM [falling, single point]"
Cc1ccc2ccc3cc(C(=O)N4CCN(c5ccccc5F)CC4)nc3c2[nH]1,AC50,[1],"10 µM [falling, partial curve, poor fit]"
COc1ccccc1NC(=O)c1c(-c2ccc(C)cc2)nnc2ccccc12,AC50,[1],"31.6 µM [falling, single point]"
CSc1nsc(SCC(=O)NC2CCCCC2)n1,AC50,[1],"5.01 µM [falling, partial curve]"
O=C(CN1CCOCC1)Nc1ccc(Oc2ccc(NC(=O)CN3CCOCC3)cc2)cc1,AC50,[1],"12.6 µM [falling, partial curve]"
CN1CCN(c2ccc(NC(=O)c3cccc(OCc4ccccc4)c3)cc2)CC1,AC50,[1],"7.94 µM [falling, partial curve]"
c1ccc2[nH]c(-c3nc4ccccc4[nH]3)nc2c1,AC50,[1],"1.26 µM [falling, full curve]"
Cc1ccc(N=c2oc3cc(O)ccc3cc2C(N)=O)cc1,AC50,[1],"0.000398 µM [falling, full curve]"
CCCNC(=O)c1ccc2c(c1)N=C(CCC)c1ccccc1S2,AC50,[2],"3.98 µM [rising, partial curve]"
same,AC50,[3],"1.26 µM [rising, full curve]"
Cc1ccc(Cl)cc1-n1ncc2c(NCCc3ccccc3)ncnc21,AC50,[1],"31.6 µM [falling, partial curve]"
O=C(Cn1nc2c(cc1=O)CCCC2)NCc1ccc(Cl)cc1,AC50,[1],"39.8 µM [rising, single point]"
Cc1cccc(CSc2cn(CC(=O)N3CCOCC3)c3ccccc23)c1,AC50,[1],"12.6 µM [falling, partial curve]"
COC(=O)Oc1c(Br)c(=O)oc2ccccc12,AC50,[1],"25.1 µM [falling, single point]"
Cc1ccc(N2C(=O)CS(=O)(=O)C23C(=O)Nc2ccccc23)cc1C (stereo not drawn),AC50,[1],"31.6 µM [falling, single point]"
CCOC(=O)N1CCC(NC(=O)c2ccc3c(c2)N(Cc2ccccc2C)C(=O)c2ccccc2S3=O)CC1 (stereo not drawn),AC50,[1],"12.6 µM [falling, partial curve]"
Cc1ccc(-n2[nH]c(C)c(/C=N/c3ccccn3)c2=O)cc1,AC50,[1],"3.98 µM [falling, full curve, poor fit]"
CN(Cc1nc(-c2ccc(Cl)cc2)no1)S(=O)(=O)c1ccccc1,AC50,[1],"31.6 µM [falling, single point]"
CC(C)c1ccc(C2CC(=O)Nc3cc4c(cc32)OCCO4)cc1 (stereo not drawn),AC50,[1],"25.1 µM [falling, single point]"
COc1ccc(N2CCN(C(=O)Nc3cn(CC(C)C)c(=O)c4ccccc34)CC2)cc1,AC50,[1],"0.398 µM [falling, full curve, poor fit]"
COc1ccc(-n2c(SCC(=O)Nc3nccs3)nc3sc4c(c3c2=O)CCN(C)C4)cc1,AC50,[1],"12.6 µM [falling, partial curve]"
Cc1c(Cl)cccc1NC(=O)c1cc(-c2ccc3c(c2)OCO3)on1,AC50,[1],"39.8 µM [falling, partial curve]"
Cc1nn(-c2ccccc2)c(OC(=O)c2ccccc2)c1S(=O)(=O)c1ccccc1,AC50,[1],"25.1 µM [falling, partial curve, poor fit]"
O=C(Nc1ccc2c(c1)OCO2)c1ccc(COc2ccc3c(c2)CCC3)o1,AC50,[1],"6.31 µM [falling, partial curve]"
COc1c(Cl)cc(C(=O)Nc2cc(-c3nc4ccccc4[nH]3)ccc2C)cc1Cl,AC50,[1],"15.8 µM [falling, single point]"
Cc1cccc(Cn2c(=O)n(CCCCC(=O)NCc3ccc4c(c3)OCO4)c(=O)c3ccccc32)c1,AC50,[1],"15.8 µM [falling, partial curve]"
COc1cccc(N2CC(O)Cn3c2nc2c3c(=O)n(CCCc3ccccc3)c(=O)n2C)c1 (stereo not drawn),AC50,[1],"25.1 µM [falling, partial curve]"
Cc1ccc(NC(=O)/C(C#N)=C/c2ccccc2Cl)cc1C,AC50,[2],"3.98 µM [rising, full curve]"
same,AC50,[3],"6.31 µM [rising, single point]"
COc1ccccc1OCCCCn1c(C2CC(=O)N(c3ccccc3Cl)C2)nc2ccccc21 (stereo not drawn),AC50,[1],"15.8 µM [falling, partial curve]"
CN(Cc1ccccc1)Cc1c(O)ccc2c(=O)c(-c3ccccc3)c(C(F)(F)F)oc12,AC50,[1],"39.8 µM [falling, single point]"
CCN(C(=O)c1sc2cc(OC)ccc2c1Cl)c1ccccc1,AC50,[1],"20 µM [falling, partial curve]"
Cc1ccc(NC(=O)CN2c3ccccc3S(=O)(=O)c3ccccc32)cc1F,AC50,[1],"31.6 µM [falling, partial curve]"
Cc1cccc(-c2nnc(NC(=O)c3ccc(Cl)cc3)o2)c1,AC50,[1],"3.98 µM [rising, full curve] [measured here: IkB-luc green channel]"
O=C(NCc1ccc(F)cc1)C1CCN(S(=O)(=O)c2ccc3c(c2)CCCN3C(=O)C2CCC2)CC1,AC50,[1],"39.8 µM [falling, single point]"
Cc1ccccc1C(=O)Oc1cc(-c2ccc3c(c2)OCO3)cc(=O)c2c(C)oc(C)c12,AC50,[1],"10 µM [falling, partial curve]"
O=C(COc1ccccc1Cl)N(Cc1ccco1)Cc1ccco1,AC50,[1],"25.1 µM [falling, single point]"
c1cc2c3c(c1)c1c(n3CCNC2)CCCC1,AC50,[1],"39.8 µM [falling, partial curve]"
Cc1ccc(S(=O)(=O)c2cnc(SCC(=O)Nc3ccccc3C(F)(F)F)[nH]c2=O)cc1C,AC50,[1],"12.6 µM [falling, partial curve]"
Cc1ccc(Cl)cc1NC(=O)c1cc2c(=O)n3cccc(C)c3nc2n1C,AC50,[1],"12.6 µM [falling, partial curve, poor fit]"

# 3 records drawn at random from the list so far:
structure (smiles),measurement,setting,value
CN(Cc1ccccc1)Cc1c(O)ccc2c(=O)c(-c3ccccc3)c(C(F)(F)F)oc12,AC50,[1],"39.8 µM [falling, single point]"
Cc1ccc(S(=O)(=O)c2cnc(SCC(=O)Nc3ccccc3C(F)(F)F)[nH]c2=O)cc1C,AC50,[1],"12.6 µM [falling, partial curve]"
COc1cccc2cc(-c3nc4sc5c(c4c(=O)[nH]3)CCC(C(C)(C)C)C5)c(=O)oc12 (stereo not drawn),AC50,[1],"0.00316 µM [rising, full curve, poor fit]"
